# Measurements taken from the supplement of paper PMC8728848.
# The list shows a part of the results.
# Assays:
# Assay in all cases: glycan array binding signal (z-score within array); higher = stronger binding
# Conditions in all cases: glycan notation: IUPAC condensed, linker removed
# Fuc(a1-3)GlcNAc = molecular target: Fuc(a1-3)GlcNAc
# In short: (§1)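 Negative Z-scores can be read as non-binding. The Z-score is calculated within each array and then averaged across arrays of one protein sequence at different concentrations or buffers and across linkers. Arrays, 3228 in all, were curated from the Consortium for Functional Glycomics database and kept only where the protein sequence was available.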
# [1] = molecular target: Fuc(a1-3)[Gal(b1-4)]Glc6S
# In short: as §1
# [2] = molecular target: Fuc(a1-3)[Gal(b1-4)]GlcNAc
# In short: as §1
# [3] = molecular target: Fuc(a1-3)[Gal(b1-4)]GlcNAc(b1-2)Man
# In short: as §1
# [4] = molecular target: Fuc(a1-3)[Gal(b1-4)]GlcNAc(b1-2)Man(a1-3)[Fuc(a1-3)[Gal(b1-4)]GlcNAc(b1-2)Man(a1-6)]Man(b1-4)GlcNAc(b1-4)GlcNAc
# In short: as §1
# [5] = molecular target: Fuc(a1-3)[Gal(b1-4)]GlcNAc(b1-2)Man(a1-3)[Fuc(a1-3)[Gal(b1-4)]GlcNAc(b1-2)Man(a1-6)]Man(b1-4)GlcNAc(b1-4)[Fuc(a1-6)]GlcNAc
# In short: as §1
# [6] = molecular target: Fuc(a1-3)[Gal(b1-4)]GlcNAc(b1-3)Gal(b1-3)[Fuc(a1-4)]GlcNAc
# In short: as §1
# [7] = molecular target: Fuc(a1-3)[Gal(b1-4)]GlcNAc(b1-3)Gal(b1-4)[Fuc(a1-3)]GlcNAc
# In short: as §1
# [8] = molecular target: Fuc(a1-3)[Gal(b1-4)]GlcNAc(b1-3)Gal(b1-4)[Fuc(a1-3)]GlcNAc(b1-3)Gal(b1-4)[Fuc(a1-3)]GlcNAc
# In short: as §1
# [9] = molecular target: Fuc(a1-3)[Gal(b1-4)]GlcNAc(b1-3)GalNAc
# In short: as §1
# [10] = molecular target: Fuc(a1-3)[Gal(b1-4)]GlcNAc(b1-6)GalNAc
# In short: as §1
# [11] = molecular target: Fuc(a1-3)[Gal(b1-4)]GlcNAc(b1-6)[Gal(b1-3)GlcNAc(b1-3)]Gal(b1-4)Glc
# In short: as §1
# [12] = molecular target: Fuc(a1-3)[Gal(b1-4)]GlcNAc6S
# In short: as §1
# [13] = molecular target: Fuc(a1-3)[Gal3S(b1-4)]Glc
# In short: as §1
# [14] = molecular target: Fuc(a1-3)[Gal3S(b1-4)]GlcNAc
# In short: as §1
# [15] = molecular target: Fuc(a1-3)[Gal3S(b1-4)]GlcNAc6S
# In short: as §1
# [16] = molecular target: Fuc(a1-3)[GalNAc(b1-4)]GlcNAc
# In short: as §1
# [17] = molecular target: Fuc(a1-3)[GalNAc(b1-4)]GlcNAc6S
# In short: as §1
# Fuc(a1-4)GlcNAc = molecular target: Fuc(a1-4)GlcNAc
# In short: as §1
# Fuc(b1-3)GlcNAc = molecular target: Fuc(b1-3)GlcNAc
# In short: as §1
# Gal(a1-2)Gal = molecular target: Gal(a1-2)Gal
# In short: as §1
# Gal(a1-3)Gal = molecular target: Gal(a1-3)Gal
# In short: as §1
# Gal(a1-3)Gal(b1-3)GlcNAc = molecular target: Gal(a1-3)Gal(b1-3)GlcNAc
# In short: as §1
# [18] = molecular target: Gal(a1-3)Gal(b1-3)GlcNAc(b1-2)Man
# In short: as §1
# [19] = molecular target: Gal(a1-3)Gal(b1-3)GlcNAc(b1-2)Man(a1-3)[Gal(a1-3)Gal(b1-3)GlcNAc(b1-2)Man(a1-6)]Man(b1-4)GlcNAc(b1-4)GlcNAc
# In short: as §1
# [20] = molecular target: Gal(a1-3)Gal(b1-3)GlcNAc(b1-3)GalNAc
# In short: as §1
# [21] = molecular target: Gal(a1-3)Gal(b1-3)GlcNAc(b1-6)GalNAc
# In short: as §1
# [22] = molecular target: Gal(a1-3)Gal(b1-3)[Fuc(a1-4)]GlcNAc(b1-2)Man(a1-3)[Gal(a1-3)Gal(b1-3)[Fuc(a1-4)]GlcNAc(b1-2)Man(a1-6)]Man(b1-4)GlcNAc(b1-4)GlcNAc
# In short: as §1
# Gal(a1-3)Gal(b1-4)Glc = molecular target: Gal(a1-3)Gal(b1-4)Glc
# In short: as §1
# Gal(a1-3)Gal(b1-4)GlcNAc = molecular target: Gal(a1-3)Gal(b1-4)GlcNAc
# In short: as §1
binder,measurement,setting,value
Mnn9-2N3 (Aspergillus fumigatus) (protein) MAVARRMRRTNPITLLLAAILAIGFFIFVLSPSTTSASPVKAGSASSSSTSQQRREDNAAENPLSPPTKPFFKSQPVRHDGQQAPPPVVQYNLNQLSSTSTSAANGERILILTPMARFVPEYWDNVVKLTYPHELISIGFIIPKNKEGNAALAALEAAIAKTQSGPIDKRFASISILRQDFEPPLQSQDEKERHKISNQKARRESMSRARNSLLFTTLGPATAWVLWLDADIVETPPTLIQDLTAHDHPVLVPNCYQRYYNSEKKKMDVRPYDYNSWIDSSTAQSMAAEMGPDEILLEGYAEMPTYRTLMAHLADTANPNPKKVIELDGVGGTALMVKAEVHRDGAMFPAFPFYHLVETEGFAKMAKRLGYSVYGLPDYFVSRNFFFFFFFFFFG,glycan array binding signal (z-score),Fuc(a1-3)GlcNAc,-0.297
same,glycan array binding signal (z-score),[1],-0.104
same,glycan array binding signal (z-score),[2],0.158
same,glycan array binding signal (z-score),[3],1.55
same,glycan array binding signal (z-score),[4],-0.336
same,glycan array binding signal (z-score),[5],-1.5
same,glycan array binding signal (z-score),[6],-0.18
same,glycan array binding signal (z-score),[7],-0.041
same,glycan array binding signal (z-score),[8],-0.131
same,glycan array binding signal (z-score),[9],-0.082
same,glycan array binding signal (z-score),[10],-0.641
same,glycan array binding signal (z-score),[11],-0.014
same,glycan array binding signal (z-score),[12],-0.346
same,glycan array binding signal (z-score),[13],0.746
same,glycan array binding signal (z-score),[14],-0.377
same,glycan array binding signal (z-score),[15],3.29
same,glycan array binding signal (z-score),[16],-0.066
same,glycan array binding signal (z-score),[17],-0.303
same,glycan array binding signal (z-score),Fuc(a1-4)GlcNAc,-0.368
same,glycan array binding signal (z-score),Fuc(b1-3)GlcNAc,-0.266
same,glycan array binding signal (z-score),Gal(a1-2)Gal,3.25
same,glycan array binding signal (z-score),Gal(a1-3)Gal,-0.434
same,glycan array binding signal (z-score),Gal(a1-3)Gal(b1-3)GlcNAc,0.098
same,glycan array binding signal (z-score),[18],0.145
same,glycan array binding signal (z-score),[19],-0.003
same,glycan array binding signal (z-score),[20],-0.015
same,glycan array binding signal (z-score),[21],-0.452
same,glycan array binding signal (z-score),[22],-0.435
same,glycan array binding signal (z-score),Gal(a1-3)Gal(b1-4)Glc,-1.47
same,glycan array binding signal (z-score),Gal(a1-3)Gal(b1-4)GlcNAc,-0.258

# In another format: results already given.
binder | measurement | setting | value
Mnn9-2N3 (Aspergillus fumigatus) (protein) MAVARRMRRTNPITLLLAAILAIGFFIFVLSPSTTSASPVKAGSASSSSTSQQRREDNAAENPLSPPTKPFFKSQPVRHDGQQAPPPVVQYNLNQLSSTSTSAANGERILILTPMARFVPEYWDNVVKLTYPHELISIGFIIPKNKEGNAALAALEAAIAKTQSGPIDKRFASISILRQDFEPPLQSQDEKERHKISNQKARRESMSRARNSLLFTTLGPATAWVLWLDADIVETPPTLIQDLTAHDHPVLVPNCYQRYYNSEKKKMDVRPYDYNSWIDSSTAQSMAAEMGPDEILLEGYAEMPTYRTLMAHLADTANPNPKKVIELDGVGGTALMVKAEVHRDGAMFPAFPFYHLVETEGFAKMAKRLGYSVYGLPDYFVSRNFFFFFFFFFFG | glycan array binding signal (z-score) | [15] | 3.29
same | glycan array binding signal (z-score) | [16] | -0.066
